Record: PubChem BioAssay AID686943 (Drosophila RNAi Screening Center, 2013)
The deposit covers about 23,000 reagents; this is an unselected part of those that have a named target and a result. 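Extra replicates exist only for a retested subset of genes; insulin dose and duration not given; both raised and lowered dpERK matter.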 Names joined by + are all predicted targets of the reagent. Further read-outs or replicates are left out here. The record does not give: the amount of reagent, the time to read-out.

Aim: 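Search across the genome for regulators of signalling from receptor tyrosine kinase to ERK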 (primary screen)
Cells: Drosophila S2R+ haemocyte-like cells expressing YFP-tagged ERK (Rolled)
Reagents: long dsRNA against Drosophila genes
Treatment: insulin stimulation versus unstimulated cells; dose and duration not given
Detection: 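Antibody staining for doubly phosphorylated ERK divided by ERK-YFP signal, as plate z-scores, in insulin-treated and untreated cells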
Reading the numbers: replicate 1, z-score of dpERK with insulin and replicate 2, z-score of dpERK with insulin: higher = more active ERK per ERK-YFP after insulin; replicate 1, z-score of dpERK under basal conditions: higher = more basal active ERK per ERK-YFP

target | DRSC id | replicate 1, z-score of dpERK with insulin | replicate 2, z-score of dpERK with insulin | replicate 1, z-score of dpERK under basal conditions
dlg1 (discs large 1) | DRSC18895 | -4.24 | -3.56 | -1.88
dlg1 (discs large 1) | DRSC18896 | 0.22 | -0.01 | 2.45
dlg1 (discs large 1) | DRSC19767 | -0.29 | -0.22 | 1.8
dlg1 (discs large 1) | DRSC20324 | 0.89 | 0.93 | -0.66
CG8051 | DRSC20077 | -0.14 | -0.19 | 0.96
CG6656 | DRSC16085 | 0.2 | -0.45 | -0.57
link | DRSC06368 | 3.19 | 2.25 | 0.99
ACC (Acetyl-CoA carboxylase) | DRSC06059 | -3.01 | -2.78 | -1.04
ACC (Acetyl-CoA carboxylase) | DRSC07249 | 1.03 | -0.14 | -1.54
Zip71B (Zinc/iron regulated transporter-related protein 71B) | DRSC09686 | 0.19 | 0.07 | 0.15
CG13896 | DRSC08366 | 0.07 | -0.49 | –
DptB (Diptericin B) | DRSC06001 | 0.59 | 0.11 | 0.99
Osi14 (Osiris 14) | DRSC12368 | -0.1 | -0.46 | –
LamC (Lamin C) | DRSC07453 | -0.18 | -0.51 | -0.4
Corp (Companion of reaper) | DRSC17771 | -0.85 | 0.05 | -1.32
CG6333 | DRSC10626 | 1.08 | 0.29 | -0.15
fliI (flightless I) | DRSC20578 | 2.26 | 1.97 | -0.27
Cdc45 (Cell division cycle 45) | DRSC17747 | -1.78 | -1.04 | -0.13
Cdc45 (Cell division cycle 45) | DRSC18164 | 0.03 | 1.78 | 1.73
Pex5 (Peroxin 5) | DRSC18552 | 0.34 | 0.08 | 0.36
PLCXD | DRSC02427 | 1.58 | -1.12 | 0.43
S-Lap8 (Sperm-Leucylaminopeptidase 8) | DRSC06870 | -0.29 | 0.2 | 0.71
S-Lap8 (Sperm-Leucylaminopeptidase 8) | DRSC21372 | 0.48 | 0.32 | 0.61
Ctr9 | DRSC08562 | 1.98 | 1.59 | -0.76
CG13047 | DRSC09928 | 0.33 | 0.15 | 0.79
CG31988 | DRSC22491 | 0.92 | 1.01 | 3.06
Cpr49Ae (Cuticular protein 49Ae) | DRSC07201 | -0.17 | -0.23 | 0.04
Pstk + Tim9b | DRSC19504 | -0.1 | 1.36 | -0.08
Pstk + Tim9b | DRSC20292 | 0.6 | 0.15 | 0.58
CG14655 | DRSC12241 | -0.2 | 0.04 | -0.68

Single entries from above.
Ctr9 [DRSC08562], replicate 1, z-score of dpERK under basal conditions: -0.76
Osi14 (Osiris 14) [DRSC12368], replicate 2, z-score of dpERK with insulin = -0.46
Pstk + Tim9b [DRSC19504], replicate 1, z-score of dpERK with insulin: -0.1
CG31988 [DRSC22491], replicate 2, z-score of dpERK with insulin = 1.01
dlg1 (discs large 1) [DRSC19767], replicate 1, z-score of dpERK under basal conditions → 1.8
Under “replicate 2, z-score of dpERK with insulin”, dlg1 (discs large 1) [DRSC18895] reads -3.56

Further entries follow.
target | DRSC id | replicate 1, z-score of dpERK with insulin | replicate 2, z-score of dpERK with insulin | replicate 1, z-score of dpERK under basal conditions
CG2812 | DRSC04319 | -1.11 | -0.21 | -0.3
Epg5 (ectopic P-granules autophagy protein 5) | DRSC14778 | -0.32 | -0.04 | -2.95
CG43689 | DRSC18046 | -0.98 | -0.78 | -0.12
CG43689 | DRSC18383 | -2.87 | -3.36 | -1.14
CG43689 | DRSC22467 | -0.21 | 0.08 | -0.86
CG3281 | DRSC15470 | 0.31 | -0.14 | 0.24
bel (belle) | DRSC16555 | 0.11 | -1.79 | -3.26
Klp67A + CG34456 | DRSC10420 | -0.13 | 0.24 | 0.5
Eig71Ej | DRSC11157 | -0.06 | -0.14 | 0.26
CG18088 | DRSC02654 | 0.37 | 0.23 | -1.23
tadr (torn and diminished rhabdomeres) | DRSC03177 | -0.26 | 0.5 | 0.34
CG14377 | DRSC14837 | 0.02 | -0.07 | 0.64
CG33543 | DRSC00384 | 0.24 | -0.46 | -1.02
CG33543 | DRSC00385 | 0.56 | 0.06 | -0.46
SsRbeta (Signal sequence receptor beta) | DRSC11290 | 0.41 | -0.28 | 0.11
RpL22 (Ribosomal protein L22) | DRSC18707 | 0.77 | 2.87 | -0.99
RpL22 (Ribosomal protein L22) | DRSC22819 | 0.4 | -0.26 | 5.47
pirk (poor Imd response upon knock-in) | DRSC04269 | -0.3 | -0.1 | 0.11
mdlc (midlife crisis) | DRSC15690 | 0.07 | -0.08 | -0.09
CG31313 | DRSC13044 | -0.61 | -0.79 | 0.44
ome (omega) | DRSC09322 | 0.34 | 0.42 | -0.62
ome (omega) | DRSC10282 | -2.54 | -0.06 | -0.62
ome (omega) | DRSC11380 | 0.3 | 0.6 | 0.1
Gr61a (Gustatory receptor 61a) | DRSC08358 | -1 | -0.71 | -0.44
Rad51D (Rad51 recombinase D) | DRSC06840 | 0.09 | 0.37 | 0.43
Cyp301a1 (Cytochrome P450 301a1) | DRSC07365 | 0.63 | 0.53 | 0.62
CG3847 | DRSC17444 | -0.95 | -1.46 | -1.6
CG3847 | DRSC18327 | 0.27 | 0.07 | -2
